In US20140100183A1, “CENTRAL ADMINISTRATION OF STABLE FORMULATIONS OF THERAPEUTIC AGENTS FOR CNS CONDITIONS” (The Regents of the University of Colorado, a body corporate, priority 2006, published 2014):
Where a name gives a salt, the structure may show the parent alone. Read-outs that look alike come from different tables or passages of the source.

Tests used:
[1] = tested on: anxiety in rats (elevated plus maze, open field); test: Elevated plus maze and open field conflicts test after ICV antidepressants; type: in vivo, rat; conditions: for efficacy following ICV administration: elevated plus maze and open field conflicts test; for Efficacy: rat, in vivo
animals [2] = test: Behavioral toxicology: openfield, elevated plus, ataxia; type: in vivo
animals [3] = conditions: Tissue pathology following minimum 28 day continuous perfusion

Structure (SMILES)	efficacy following ICV administration [1]	Efficacy [1]	Highest non-toxic concentration (animals [2])	Highest non-toxic concentration (animals [3])
CN(C)CCCN1c2ccccc2CCc2ccc(Cl)cc21 [Clomipramine, 3-(3-Chloro-10,11-dihydro-5H-dibenz[b,f]azepin-5-yl)propyldimethylamine hydrochloride]	efficacy	anxiety reduction	–	–
CNCCC(Oc1ccc(C(F)(F)F)cc1)c1ccccc1 (racemic) [Fluoxetine, (+/−)-N-Methyl-3-phenyl-3-(alpha,alpha,alpha-trifluoro-p-tolyloxy)propylamine hydrochloride]	efficacy	anxiety reduction	0.0172 mg/mL	0.0172 mg/mL
